Hit rate of the full screen: of about 310,000 compounds, about 17,000 (5.5%) were called active. The inconclusive results got no clear call from the source; some entries with a clear call stand among them for comparison. Calls follow the shape of the dose curve; as a rule, active = well fitted inhibition curve with a large enough effect; inconclusive = small, poorly fitted or top-dose-only effect, or effect the other way; inactive = no such curve, though single readings can be large or run the other way. Potencies beside an inconclusive call are fits to weak or partial responses and may not hold up.
Target: Nuclear receptor ROR-gamma (Mus musculus) (UniProt P51450)
Test: qHTS for inhibitors of ROR gamma transcriptional activity; also: nearly all actives have a fitted effect of over 60% in size
Settings: Drosophila S2 Gal4-RORgamma UAS-luciferase reporter, 20 h; activity change, negative = inhibition: at 53.6 µM (top of the series)
Method in brief: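 A Gal4/UAS one-hybrid system in insect cells: metallothionein-promoter Gal4–ROR gamma fusion plus Photinus luciferase reporter. Copper sulfate 700 uM final, 20 hr ambient incubation, luminescent detection after 10 min with reagent.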
% is scaled to controls: 0 for no effect and ±100 for the full control effect; potency is read from the fitted curve at half-maximal effect.

Protein sequences, listed by entry. Tags and fused reporters are not part of them. Lines headed by an entry give the natural chain unless they say otherwise; changes in a name come on top.
UniProt P51450: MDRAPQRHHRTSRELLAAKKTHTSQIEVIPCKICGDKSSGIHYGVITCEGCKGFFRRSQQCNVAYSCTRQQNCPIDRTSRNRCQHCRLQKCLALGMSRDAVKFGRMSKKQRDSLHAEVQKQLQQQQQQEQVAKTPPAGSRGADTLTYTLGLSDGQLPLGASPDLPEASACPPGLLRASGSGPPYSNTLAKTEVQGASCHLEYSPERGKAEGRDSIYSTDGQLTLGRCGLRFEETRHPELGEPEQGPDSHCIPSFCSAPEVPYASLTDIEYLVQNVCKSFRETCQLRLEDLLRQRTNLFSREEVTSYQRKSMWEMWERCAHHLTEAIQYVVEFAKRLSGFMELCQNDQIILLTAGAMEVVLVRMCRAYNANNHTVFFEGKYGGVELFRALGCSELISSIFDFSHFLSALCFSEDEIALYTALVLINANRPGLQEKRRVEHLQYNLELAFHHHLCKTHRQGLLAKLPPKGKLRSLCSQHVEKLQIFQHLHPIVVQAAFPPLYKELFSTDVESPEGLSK

Potency, active:
Cc1ccc(-c2nc3ccccc3s2)cc1NC(=S)NC(=O)/C=C/c1ccco1 3.98 µM
N=C1/C(=C/c2cccn2Cc2ccc(Cl)cc2)C(=O)N=C2SC=CN12 3.98 µM
CC(=O)COc1ccc2c(c1C)O/C(=C\c1ccco1)C2=O 10 µM
CC(C)C(NS(=O)(=O)c1cccs1)C(=O)Nc1nc(C(C)(C)C)cs1 (centres undefined) 11.2 µM
Cc1[nH]c(-c2ccccn2)nc(=S)c1Cl 10 µM
CCOC(=S)SCC(=O)Nc1nc(C)c(C)s1 12.6 µM
CCCCC(C)/C=C(C)/C=C(\C)C(=O)NC1=CC(O)(/C=C/C=C/C=C/C(=O)NC2=C(O)CCC2=O)C2OC2C1=O (centres undefined) 0.562 µM
COc1ccc(/C=N/Nc2nc(C)cc(-c3ccccc3)n2)c(OC)c1 10 µM
Cc1cc(C)cc(NC(=S)NCc2ccc3[nH]c4c(c3c2)CCCC4)c1 2.51 µM
Fc1ccc2[nH]c3c(N4CCc5ccccc5C4)ncnc3c2c1 11.2 µM
COc1cccc(NC(=S)NC(=O)/C=C/c2ccco2)c1 11.2 µM
CCN(CC)CCCNC1=C(Cl)C(=O)c2ccccc2C1=O 7.94 µM
CCOC(=O)c1ccc(NC(=O)c2nc[nH]c2C(=O)NCc2ccccc2)cc1 3.55 µM
CN1C(=O)/C(=C/c2cn(CC(=O)N3CCCCC3)c3ccccc23)NC1=S 11.2 µM
CC(C)Cc1cc(CN2CCC(CO)(Cc3cccc(C(F)(F)F)c3)CC2)[nH]n1 4.47 µM

Potency, inactive:
COc1ccc2[nH]c(=O)c(CN(Cc3nnnn3Cc3ccc(F)cc3)CC3CCCO3)cc2c1 (centres undefined)
CCC(Sc1nnc(C)c(=O)[nH]1)C(=O)Nc1cccc2ccccc12 (centres undefined)
Nc1cc(N2CCOCC2)c(Cl)cc1[N+](=O)[O-]
CC(=O)c1cccc(NC(=O)c2cc(S(=O)(=O)N3CCOCC3)cs2)c1
COc1ccc(OC)c(CCNC(=O)c2nn(C)c3c2CS(=O)(=O)c2ccccc2-3)c1
COC(=O)[C@@]1(C)CC[C@]2(C)CC[C@@]3(C)C(=CC(=O)C4[C@@]5(C)CC[C@H](O)C(C)(C)[C@@H]5CC[C@]43C)[C@H]2C1 (some centres undefined)
O=C(Cn1cnc2scc(-c3cccc([N+](=O)[O-])c3)c2c1=O)NCc1ccco1
COc1ccc(-n2nc3c(N4CCC(C(=O)NCc5ccccc5)CC4)nnc(C)c3c2C)cc1
O=C(c1cc(COc2ccc(F)cc2Cl)on1)N(CCO)Cc1cccs1
CC(C)CC(=O)Nc1ccc(C(=O)NNC(=S)NC(=O)C2CCCCC2)cc1
Cc1cccc(N(CC(=O)NC2CCCC2)C(=O)CCC(=O)Nc2ccccn2)c1
CCN(CC)S(=O)(=O)c1cccc(NC(=O)Nc2cccc(C(F)(F)F)c2)c1
COc1ccc(C(=O)NC(Cc2c[nH]c3ccccc23)C(=O)O)cc1 (centres undefined)
O=C(NCCc1c[nH]c2ccccc12)C(=O)NCC1OCCCN1S(=O)(=O)c1ccccc1 (centres undefined)
Cc1cc(C)n2c(Nc3ccc4c(c3)OCCO4)c(-c3ccccc3)nc2n1
C=C(C)CN(CC)Cc1c(C(=O)N(C)CCCC)nc2ccccn12
NS(=O)(=O)c1cccc(NC(=O)CCC(=O)c2cccs2)c1
CS(=O)(=O)N(CCc1ccccc1)CC(=O)N1CCCC1
O=C(CCCCCN1C(=O)c2ccccc2C1=O)Nc1ccc2c(c1)OCCO2
COc1cccc(C2=CC(c3cccc(OC)c3OC(F)F)n3nnnc3N2)c1 (centres undefined)
Cc1cc([N+](=O)[O-])ccc1NCc1ccccc1
CC1CC(C)CN(C(=O)CCNC(=O)Cn2cnc3ccccc3c2=O)C1 (centres undefined)
COC(C[C@@H]1O[C@@H]1[C@@H](O)[C@@H](C)OCc1ccccc1)OC

Fetched one by one from the list above (4):
Potency, inactive:
COc1ccc(-n2nc3c(N4CCC(C(=O)NCc5ccccc5)CC4)nnc(C)c3c2C)cc1
Cc1cc([N+](=O)[O-])ccc1NCc1ccccc1
C=C(C)CN(CC)Cc1c(C(=O)N(C)CCCC)nc2ccccn12
CCN(CC)S(=O)(=O)c1cccc(NC(=O)Nc2cccc(C(F)(F)F)c2)c1

Following part:

Potency, inconclusive:
CCn1c(C(=O)N2CCC(C(=O)NCc3ccc4c(c3)OCO4)CC2)cc2sccc21 25.1 µM [activator, single point]
Cc1ccc(S(=O)(=O)NCc2ccccc2)cc1 15.8 µM [activator, partial curve]
O=C1c2cccc3cccc(c23)C(=O)N1CCCc1n[nH]c(=S)n1-c1ccccc1 3.16 µM [inhibitor, full curve]
c1cncc(-c2nnc(SCc3nc4ccccc4[nH]3)o2)c1 8.91 µM [inhibitor, single point]
CC(=O)Oc1cccc(/C=C2\Sc3ccccc3C2=O)c1 17.8 µM [inhibitor, single point]
COC(=O)c1c(NC(=O)C(C)C)sc2c1C(C(=O)OC)CC2 (centres undefined) 31.6 µM [activator, single point]
CCCCCCC/C=N/Nc1nnc(Cc2ccccc2)c(=O)[nH]1 5.62 µM [inhibitor, full curve]
c1cc2c(cc1-c1csc(NNC3=NCCCCC3)n1)OCCO2 35.5 µM [inhibitor, single point]
CC1CC(C)(C)NC(=S)N1CCCC(=O)NCc1ccccc1 (centres undefined) 10 µM [inhibitor, single point]
CCC(=O)c1ccc(OCc2ccc(C#N)cc2)cc1 12.6 µM [activator, single point]
COc1ccc(OC)c(NC(=O)CSc2nnc(Cc3cccn3C)n2CCc2ccccc2)c1 3.55 µM [activator, partial curve]
CCOc1ccc(-c2nnc(SCC(=O)Nc3ccc4c(c3)c3ccccc3n4CC)n2N)cc1 35.5 µM [inhibitor, single point]
COc1ccc2c(CC(=O)OCC(=O)Nc3sc4c(c3C#N)CCC(C)C4)coc2c1 (centres undefined) 3.98 µM [activator, full curve]
CC(C)n1c(Nc2ccccc2)nc2ccccc21 35.5 µM [inhibitor, single point]
COc1ccccc1NC(=O)c1ccc(NC(=O)CSc2nncn2C)cc1 3.16 µM [activator, full curve]
CCc1ccc(NC(=O)COc2ccc(F)cc2C(=O)c2cnn(-c3ccccc3)c2)cc1 15.8 µM [activator, partial curve]
COc1cc(/C=N\NC(=O)c2ccc(-c3ccccc3)cc2)cc(OC)c1O 20 µM [inhibitor, partial curve, poor fit]
CC1Nc2ccc(C(=O)NC3CCCCC3)cc2NC1=O (centres undefined) 17.8 µM [inhibitor, single point]
CC1CC(C)(C)NC(=S)N1CCCC(=O)Nc1ccc(F)c(F)c1 (centres undefined) 14.1 µM [inhibitor, partial curve, poor fit]
COc1ccc(CNc2oc(COc3ccc(Cl)cc3)nc2C#N)cc1 11.2 µM [activator, partial curve]
Cc1ccc(-c2nc(CSc3nc4ccccc4c(=O)n3CCO)cs2)cc1 20 µM [activator, single point]
CC(=O)c1cccc(NC(=O)Nc2cccnc2)c1 0.794 µM [activator, full curve, poor fit]
Cc1cc(C)n(CC(O)Cn2cnc3c2c(=O)n(C)c(=O)n3C)n1 (centres undefined) 3.98 µM [activator, full curve, poor fit]
COc1cc2ncnc(Nc3cccc(Br)c3)c2cc1OC 12.6 µM [activator, partial curve, poor fit]
CCN(CC)CCN(C(=O)c1cc(Cl)sc1Cl)c1nc2cc3c(cc2s1)OCO3 6.31 µM [inhibitor, single point]
Cc1ccc(-c2nc3ncccc3n2O)cc1 14.1 µM [activator, single point]
O=C(C1CC1)N1CCc2cc(S(=O)(=O)N(CCO)Cc3ccccc3)ccc21 12.6 µM [activator, partial curve]
COc1ccc(C(C[N+](=O)[O-])C2(c3ccc(OC)c(OC)c3)C(=O)c3ccccc3C2=O)cc1 (centres undefined) 35.5 µM [inhibitor, single point]
Cc1ccc(NC(=O)CSc2nnc(Cc3cccn3C)n2-c2ccc(F)cc2)cc1 35.5 µM [activator, single point]
COCC(C)NC(=O)c1noc2c1CCc1cc(OC)ccc1-2 (centres undefined) 4.47 µM [activator, partial curve]
CCc1ccc(N2C(=O)CC(N3CCN(Cc4ccc5c(c4)OCO5)CC3)C2=O)cc1 (centres undefined) 35.5 µM [activator, single point]
Cn1cnnc1Sc1ccc(C(=O)NCCC(c2ccccc2)c2ccccc2)cc1[N+](=O)[O-] 17.8 µM [activator, single point]
O=C1c2ccccc2C(=O)C1c1ccncc1 15.8 µM [inhibitor, single point]
CCCCN1CN(S(=O)(=O)c2cccs2)c2nc3ccccc3nc21 15.8 µM [inhibitor, single point]
CCc1ccc2nc(N(CCCN(C)C)C(=O)c3ccc4c(c3)OCCO4)sc2c1 35.5 µM [inhibitor, single point]

Activity change, negative = inhibition, inactive:
C=CCOC(=O)C(C#N)c1nc2ccccc2nc1N1CCC(C(=O)OCC)CC1 (centres undefined) -13% [at 0.365 µM]
